Reference: US11491245B2, “Gadolinium chelate compounds for use in magnetic resonance imaging” (BAYER PHARMA AKTIENGESELLSCHAFT, priority 2015, dated 2022)
Some entries share one result that the patent states for a list of compounds. For at least one compound, name, drawing or mass did not settle the structure.

Assay: Gd-complex stabilities in human plasma at 37° C., 15 d
Format: in vitro ADME
Details: 1 mmol Gd/L, 15 days, pH 7.4, limit of quantification

Row | Compound | release of Gd^3+
1 | CC(C(=O)NCC(=O)NCC(CNC(=O)CNC(=O)C(C)N1CCN(CC(=O)[O-])CCN(CC(=O)[O-])CCN(CC(=O)[O-])CC1)(CNC(=O)CNC(=O)C(C)N1CCN(CC(=O)[O-])CCN(CC(=O)[O-])CCN(CC(=O)[O-])CC1)CNC(=O)CNC(=O)C(C)N1CCN(CC(=O)[O-])CCN(CC(=O)[O-])CCN(CC(=O)[O-])CC1)N1CCN(CC(=O)[O-])CCN(CC(=O)[O-])CCN(CC(=O)[O-])CC1.[Gd+3].[Gd+3].[Gd+3].[Gd+3] (centres unmarked) [Example 3, Tetragadolinium [4,10-bis(carboxylatomethyl)-7-{3,6,12,15-tetraoxo-16-[4,7,10-tris-(carboxylatomethyl)-1,4,7,10-tetraazacyclododecan-1-yl]-9,9-bis({[({2-[4,7,10-tris-(carboxylatomethyl)-1,4,7,10-tetraazacyclododecan-1-yl]propanoyl}amino)acetyl]-amino}methyl)-4,7,11,14-tetraazaheptadecan-2-yl}-1,4,7,10-tetraazacyclododecan-1-yl]acetate] | < 0.1 % of the injected total amount of Gadolinium
2 | O=C([O-])CN1CCN(CC(=O)[O-])CCN(CC(=O)NCC(CNC(=O)CN2CCN(CC(=O)[O-])CCN(CC(=O)[O-])CCN(CC(=O)[O-])CC2)(CNC(=O)CN2CCN(CC(=O)[O-])CCN(CC(=O)[O-])CCN(CC(=O)[O-])CC2)CNC(=O)CN2CCN(CC(=O)[O-])CCN(CC(=O)[O-])CCN(CC(=O)[O-])CC2)CCN(CC(=O)[O-])CC1.[Gd+3].[Gd+3].[Gd+3].[Gd+3] [Example 10, Tetragadolinium {4,10-bis(carboxylatomethyl)-7-[2-oxo-2-({3-({[4,7,10-tris(carboxylato-methyl)-1,4,7,10-tetraazacyclododecan-1-yl]acetyl}amino)-2,2-bis[({[4,7,10-tris-(carboxylatomethyl)-1,4,7,10-tetraazacyclododecan-1-yl]acetyl}amino)methyl]propyl}-amino)ethyl]-1,4,7,10-tetraazacyclododecan-1-yl}acetate] | < 0.1 % of the injected total amount of Gadolinium
